Results deposited as PubChem BioAssay AID1508588 (Peter MacCallum Cancer Centre, 2020)
Purpose: 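Which gene losses make BRAF-mutant melanoma cells more responsive to vemurafenib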 (primary screen). Cells: human WM266.4 melanoma cells (BRAF V600 mutant). Reagent: siRNA pool against human genes, 40 nM. Time to read-out: 96 h from transfection to read-out. Conditions: vemurafenib 300 nM (about IC25), added 48 h after transfection, for 48 h; comparison arm got DMSO vehicle only. Measured: 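Cell gain (DAPI nuclei at end minus before drug, mean of two replicates) and medium lactate by absorbance per cell, both as ratio to non-targeting siRNA, also grouped into fold-change classes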. Scale: cell gain with vemurafenib: higher = more cell gain than with non-targeting siRNA; lactate per cell with vemurafenib: higher = more lactate made per cell. Active means: 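Enhancement is called by pairing each knock-down's vehicle-arm and drug-arm fold-change classes for viability or glycolysis; which class combinations qualify is not given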. Calls: active = enhances vemurafenib effect; inactive = no enhancement seen.
The whole screen tested about 18,000 reagents; shown is an unselected part. In the full data, 790 (4.4%) are marked active. 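Calls rest on a combination of fold-change classes in drug and vehicle arms, not all shown here.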 The numbers tell different reagents against one gene apart.

gene | pool no. | cell gain with vemurafenib | lactate per cell with vemurafenib | call
MAP3K7CL (GeneID 56911) | 1 | 0.5 | 2.27 | inactive
OR52H1 (GeneID 390067) | 1 | 0.55 | 1.08 | inactive
SLC30A9 (GeneID 10463) | 1 | 0.3 | 0.96 | inactive
CPOX (GeneID 1371) | 1 | 0.6 | 0.68 | inactive
CCDC51 (GeneID 79714) | 1 | 0.76 | 1.33 | inactive
HEYL (GeneID 26508) | 1 | 0.92 | 0.68 | inactive
S1PR5 (GeneID 53637) | 1 | 0.33 | 0.8 | inactive
LACC1 (GeneID 144811) | 1 | 0.75 | 0.72 | inactive
TRIM32 (GeneID 22954) | 1 | 1.06 | 0.77 | inactive
ZNG1F (GeneID 644019) | 1 | 0.93 | 0.4 | inactive
ITGB1BP1 (GeneID 9270) | 1 | 0.2 | 1.03 | inactive
TRPC5 (GeneID 7224) | 1 | 0.58 | 0.2 | inactive
MCRIP2 (GeneID 84331) | 1 | 0.33 | 1.26 | inactive
ADH1C (GeneID 126) | 1 | 0.57 | 0.35 | inactive
OR8H1 (GeneID 219469) | 1 | 0.92 | 0.9 | inactive
TNFRSF10B (GeneID 8795) | 1 | 0.89 | 1.06 | inactive
UMPS (GeneID 7372) | 1 | 0.51 | 0.7 | active
MYL7 (GeneID 58498) | 1 | 0.1 | 3.18 | inactive
H2AC12 (GeneID 85235) | 1 | 0.93 | 1.1 | inactive
EED (GeneID 8726) | 1 | 0.22 | 1.61 | inactive
TSLIG3C (GeneID 147965) | 1 | 0.14 | 0.88 | active
WDR26 (GeneID 80232) | 1 | 0.31 | 1.23 | inactive
HTR3C (GeneID 170572) | 1 | 0.53 | 0.86 | inactive
KIF16B (GeneID 55614) | 1 | 0.44 | 1.06 | inactive
REXO5 (GeneID 81691) | 1 | 0.77 | 0.76 | inactive
OR51E2 (GeneID 81285) | 1 | 0.88 | 0.6 | inactive
FBXL12 (GeneID 54850) | 1 | 0.29 | 1.12 | inactive
ZNF638 (GeneID 27332) | 1 | 0.74 | 0.6 | inactive
FIRRM (GeneID 55732) | 1 | 0.24 | 0.94 | inactive
MGAT4A (GeneID 11320) | 1 | 0.72 | 1.42 | inactive
ATP7A (GeneID 538) | 1 | 0.33 | 0.59 | inactive
CMTM7 (GeneID 112616) | 1 | 0.65 | 0.78 | inactive
NLGN1 (GeneID 22871) | 1 | 0.56 | 0.84 | inactive
KIR2DL5B (GeneID 553128) | 1 | 0.65 | 1.01 | inactive
ZFP36 (GeneID 7538) | 1 | 0.56 | 0.46 | active
PDE7B (GeneID 27115) | 1 | 0.93 | 0.29 | inactive
STMN2 (GeneID 11075) | 1 | 0.78 | 1.19 | inactive
TRHDE (GeneID 29953) | 1 | 0.79 | 1.23 | inactive
NEFL (GeneID 4747) | 1 | 0.69 | 0.72 | inactive
GLYR1 (GeneID 84656) | 1 | 1.1 | 0.44 | active
LOC402715 (GeneID 402715) | 1 | 0.79 | 0.88 | inactive
DNAJB2 (GeneID 3300) | 1 | 0.46 | 0.76 | inactive
OR56A4 (GeneID 120793) | 1 | 0.84 | 0.81 | inactive
SLC8B1 (GeneID 80024) | 1 | 0.05 | 0.86 | inactive
GPX2 (GeneID 2877) | 1 | 0.54 | 0.58 | inactive
NDUFA9 (GeneID 4704) | 1 | 1.02 | 1.5 | inactive
ATAD2 (GeneID 29028) | 1 | 0.72 | 0.69 | inactive
ARHGAP33 (GeneID 115703) | 1 | 0.43 | 0.26 | inactive
C15orf40 (GeneID 123207) | 1 | 0.63 | 0.94 | inactive
SACK1E (GeneID 54854) | 1 | 0.73 | 0.38 | inactive
SSPN (GeneID 8082) | 1 | 0.32 | 0.85 | inactive
DIAPH3 (GeneID 81624) | 1 | 0.46 | 0.36 | inactive
GTF2IRD2 (GeneID 84163) | 1 | 0.52 | 0.91 | inactive
RBFOX3 (GeneID 146713) | 1 | 1.05 | 0.64 | inactive
RBFOX3 (GeneID 146713) | 2 | 0.89 | 1.06 | inactive
PROK1 (GeneID 84432) | 1 | 0.4 | 1.92 | inactive
GAS6 (GeneID 2621) | 1 | 0.88 | 1.29 | inactive
RASSF8 (GeneID 11228) | 1 | 0.27 | 1.56 | inactive
CCDC18 (GeneID 343099) | 1 | 0.9 | 1.03 | inactive
SSB (GeneID 6741) | 1 | 0.41 | 0.6 | inactive
CDK9 (GeneID 1025) | 1 | 0.68 | 0.62 | inactive
NFKBIL1 (GeneID 4795) | 1 | 1.02 | 0.8 | inactive
TEKT3 (GeneID 64518) | 1 | 0.76 | 0.54 | inactive
HMGN2 (GeneID 3151) | 1 | 0.17 | 1.87 | inactive
MSANTD4 (GeneID 84437) | 1 | 1.04 | 0.82 | inactive
OR2V2 (GeneID 285659) | 1 | 0.61 | 1.52 | inactive
ALLC (GeneID 55821) | 1 | 0.64 | 0.42 | inactive
CYP4F2 (GeneID 8529) | 1 | 1.01 | 0.7 | inactive
CHRNA1 (GeneID 1134) | 1 | 0.64 | 0.5 | inactive
IDO1 (GeneID 3620) | 1 | 0.55 | 0.85 | inactive
ZNF430 (GeneID 80264) | 1 | 0.35 | 0.6 | inactive
H3C8 (GeneID 8355) | 1 | 0.53 | 1.12 | inactive
RAB43 (GeneID 339122) | 1 | 0.45 | 1.77 | inactive
TMPRSS5 (GeneID 80975) | 1 | 0.69 | 0.78 | inactive
EPB41 (GeneID 2035) | 1 | 1 | 0.51 | inactive
S100B (GeneID 6285) | 1 | 1.16 | 0.88 | inactive
SERPINB5 (GeneID 5268) | 1 | 0.2 | 1.25 | inactive
REV3L (GeneID 5980) | 1 | 0.59 | 1.04 | inactive
SIRPB1 (GeneID 10326) | 1 | 0.53 | 0.77 | inactive
UTP23 (GeneID 84294) | 1 | 0.64 | 1.75 | inactive
CFAP95 (GeneID 138255) | 1 | 0.84 | 0.53 | inactive
OR4X1 (GeneID 390113) | 1 | 0.64 | 1.4 | inactive
HPCAL1 (GeneID 3241) | 1 | 0.82 | 0.78 | inactive
CLDN10 (GeneID 9071) | 1 | 1.13 | 0.23 | inactive

A few values from the entries so far.
HPCAL1 (GeneID 3241), cell gain with vemurafenib: 0.82
For “lactate per cell with vemurafenib”, ZNG1F (GeneID 644019) has 0.4
EED (GeneID 8726), lactate per cell with vemurafenib = 1.61
STMN2 (GeneID 11075), lactate per cell with vemurafenib → 1.19
Under “call”, SACK1E (GeneID 54854) has inactive
Entry for CFAP95 (GeneID 138255) under “lactate per cell with vemurafenib”: 0.53
